Reference: PubChem BioAssay AID493014 (National Center for Advancing Translational Sciences (NCATS), 2011)
This is one part of the list. The main result of the screen is listed elsewhere. These columns were measured beside it and carry no call. Compounds called inactive in the main read-out are mostly missing here. The note in brackets gives the kind of curve behind each potency; many fits are weak.

Assay: qHTS Assay to Find Inhibitors of Chronic Active B-Cell Receptor Signaling
Conditions: ABC-DLBCL IkBa-CBG/CBR reporter, luminescence ratio (green luciferase fused to IkBa over red control in TMD8 lymphoma cells), 4 h
Method in brief: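 Doxycycline induced both beetle luciferases in TMD8 lymphoma cells; IKK-driven degradation limits the IkappaBalpha-fused green signal, while red luminescence normalises for cell number and nonspecific effects. Compounds tested up to 46 uM, 4 hrs.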

[1] = measured here: CBR red luminescence, cell number
[2] = measured here: IkBa-CBG green luminescence

| Structure (SMILES) | AC50 [1] | AC50 [2] |
| --- | --- | --- |
| CCOC(=O)Cc1csc(NC(=O)COc2ccc3ccccc3c2)n1 | 1.26 µM [falling, full curve] | – |
| Cc1cc(C)c(NC(=O)CCc2c(C)noc2C)c(C)c1 | 6.51 µM [rising, single point] | – |
| N#CCC(=O)Nc1ccc(C(=O)OCC(=O)Nc2ccccc2Sc2ccccc2)cc1 | 28.2 µM [falling, single point] | – |
| Fc1ccc(-c2cnn3c(-c4cccs4)ccnc23)cc1 | 3.16 µM [falling, full curve, poor fit] | – |
| CNC(=O)Nc1cccc(C(F)(F)F)c1 | 20.6 µM [rising, partial curve, poor fit] | – |
| COCCN(Cc1cc2ccc(C)cc2[nH]c1=O)S(=O)(=O)c1ccccc1 | 5.62 µM [falling, partial curve] | – |
| CC1CC2(CCCC2)N(C(=O)N(C)C)c2ccc(F)cc21 (centres undefined) | 35.5 µM [rising, partial curve, poor fit] | – |
| O=C(NNC(=S)Nc1ccccc1Cl)C1CC1 | 0.013 µM [rising, full curve, poor fit] | – |
| CCCc1nnc(NC(=O)CS(=O)(=O)c2ccccc2)s1 | 17.8 µM [falling, partial curve, poor fit] | – |
| COc1cccc(C(=O)NC(=S)Nc2ccc(Cl)cc2C(=O)O)c1 | 5.01 µM [falling, full curve, poor fit] | – |
| Cc1ccc(SCc2cn3cc(Cl)ccc3n2)cc1 | – | 14.1 µM [rising, partial curve, poor fit] |
| Cc1ccc(S(=O)(=O)NCCCCCC(=O)Nc2nccs2)cc1 | 12.6 µM [falling, partial curve] | – |
| O=C(COc1ccc2c(-c3ccccc3)cc(=O)oc2c1)NCCCn1ccnc1 | 25.1 µM [rising, single point] | – |
| COc1ccc(/C=C2\SC(=N)N(c3nccs3)C2=O)cc1OC | 20.6 µM [rising, partial curve] | 18.4 µM [falling, single point] |
| Cc1ccc(C(=O)CCC2CCCC2=O)cc1 (centres undefined) | 0.461 µM [rising, full curve, poor fit] | – |
| COc1cccc(C(C(=O)NC(C)(C)C)N(CCC(C)C)C(=O)CCC(=O)Nc2cc(C)on2)c1OC (centres undefined) | 6.31 µM [rising, single point] | – |
| Cc1ccc(CN(C)C(=O)C2CCCN2C(=O)c2cccs2)o1 (centres undefined) | 35.5 µM [rising, single point] | – |
| S=C(Nc1ccccc1Cl)N(Cc1ccccc1)Cc1ccccn1 | – | 35.5 µM [falling, partial curve, poor fit] |
| CCC(C)(C)c1ccc(Oc2cccc(C(=O)O)c2)cc1 | 6.31 µM [falling, single point] | – |
| CC(=O)Oc1ccc(C(=O)Nc2cccc(C(=O)c3cccc(NC(=O)c4ccc(OC(C)=O)cc4)c3)c2)cc1 | 5.8 µM [falling, full curve] | – |
| COc1ccc(C(=O)NN=C2CCCC2)cc1 | 12.6 µM [falling, partial curve] | – |
| O=C(N/N=C/C1C(c2ccccc2)C1(Cl)Cl)c1cccc(Cl)c1 (centres undefined) | 25.9 µM [falling, partial curve] | – |

| Structure (SMILES) | AC50 [1] | AC50 [2] |
| --- | --- | --- |
| O=C(NCC1CCCO1)c1cnn2c1NC(c1ccccc1)CC2C(F)(F)F (centres undefined) | 6.51 µM [rising, single point] | – |
| C/C(N)=C(/C#N)C(=O)CSc1nnc(-c2ccc(OC(F)F)cc2)o1 | 4.11 µM [falling, single point] | – |
| CCCN(CCC)CCNC(=O)c1cc(Sc2ccc(Cl)cc2)nc2ccccc12 | 5.62 µM [falling, single point] | – |
| CC(C)(C)c1csc(SCC(=O)Nc2ccc(Cl)cn2)n1 | 0.82 µM [falling, full curve, poor fit] | – |
| COC(=O)CCNC(=O)c1nn(Cc2ccccc2)c(=O)c2ccccc12 | 3.98 µM [falling, full curve, poor fit] | – |
| Cc1noc(C)c1S(=O)(=O)NCCc1csc2nc(-c3ccc(F)cc3)nn12 | 12.6 µM [falling, single point] | 12.6 µM [rising, single point] |
| Cc1nc2c(-c3ccc(F)cc3)c(C)nn2c(C)c1CCC(=O)N1CCN(c2ccccn2)CC1 | 20 µM [falling, partial curve, poor fit] | – |
| CCOc1ccccc1CN1CCN(Cc2ccc3cccc(OC)c3n2)CC1CCO (centres undefined) | 35.5 µM [falling, single point] | – |
| Cc1ccccc1C(=O)N1CCN(C(c2ccccc2)c2ccccc2)CC1 | 10 µM [falling, partial curve, poor fit] | – |
| O=C(/C=C/c1ccccc1)OCC(=O)c1ccc[nH]1 | 20.6 µM [falling, single point] | – |
| COc1ccccc1NC1=C(Cl)C(=O)N(C2CCCCC2)C1=O | 1.26 µM [falling, full curve, poor fit] | – |
| Cc1cc(C)n(-c2nc(NCCCN(C)C)c3c4c(sc3n2)CCCC4)n1 | 0.708 µM [rising, full curve, poor fit] | – |
| N#CC1(NC(=O)Cn2ncc(Cl)c(Cl)c2=O)CCCCC1 | 5.8 µM [falling, full curve] | 6.51 µM [rising, partial curve, poor fit] |
| N#Cc1nc(-c2cccs2)oc1NCc1ccccc1Cl | 0.251 µM [falling, partial curve, poor fit] | – |
| CC(NC(=O)c1ccc(N2CCCC2)c([N+](=O)[O-])c1)c1ccc(S(N)(=O)=O)cc1 (centres undefined) | 22.4 µM [rising, single point] | – |
| Cc1cc(C)cc(N2CC(C(=O)O)CC2=O)c1 (centres undefined) | 3.66 µM [falling, single point] | – |
| O=C(C1CC1)N1N=C(c2ccccc2)CC1(O)C(F)(F)C(F)(F)F (centres undefined) | 14.1 µM [rising, partial curve, poor fit] | – |
| Cc1cc(C)cc(NC(=O)C(=O)NCC2CCCN2S(=O)(=O)c2cccs2)c1 (centres undefined) | – | 10.3 µM [falling, partial curve, poor fit] |
| COc1ccccc1C(=O)COC(=O)CNS(=O)(=O)c1ccc(NC(C)=O)cc1 | 35.5 µM [rising, single point] | – |
| O=C(NCCc1ccccc1)NC1CCCCC1 | 13 µM [falling, partial curve] | – |
| CCCN1C(=O)CN(C2CCCCC2)C(=O)C1c1ccc(OC)c(OC)c1 (centres undefined) | 0.0891 µM [rising, full curve, poor fit] | – |
| CC(=O)N/N=C\c1ccccc1OC/C=C/c1ccccc1 | 35.5 µM [rising, single point] | – |

A second format for some results above:
Structure (SMILES)	AC50 [1]	AC50 [2]
CCOc1ccccc1CN1CCN(Cc2ccc3cccc(OC)c3n2)CC1CCO (centres undefined)	35.5 µM [falling, single point]	–
Cc1ccccc1C(=O)N1CCN(C(c2ccccc2)c2ccccc2)CC1	10 µM [falling, partial curve, poor fit]	–
O=C(/C=C/c1ccccc1)OCC(=O)c1ccc[nH]1	20.6 µM [falling, single point]	–
COc1ccccc1NC1=C(Cl)C(=O)N(C2CCCCC2)C1=O	1.26 µM [falling, full curve, poor fit]	–
Cc1cc(C)n(-c2nc(NCCCN(C)C)c3c4c(sc3n2)CCCC4)n1	0.708 µM [rising, full curve, poor fit]	–
N#CC1(NC(=O)Cn2ncc(Cl)c(Cl)c2=O)CCCCC1	5.8 µM [falling, full curve]	6.51 µM [rising, partial curve, poor fit]
N#Cc1nc(-c2cccs2)oc1NCc1ccccc1Cl	0.251 µM [falling, partial curve, poor fit]	–
CC(NC(=O)c1ccc(N2CCCC2)c([N+](=O)[O-])c1)c1ccc(S(N)(=O)=O)cc1 (centres undefined)	22.4 µM [rising, single point]	–
Cc1cc(C)cc(N2CC(C(=O)O)CC2=O)c1 (centres undefined)	3.66 µM [falling, single point]	–
O=C(C1CC1)N1N=C(c2ccccc2)CC1(O)C(F)(F)C(F)(F)F (centres undefined)	14.1 µM [rising, partial curve, poor fit]	–
Cc1cc(C)cc(NC(=O)C(=O)NCC2CCCN2S(=O)(=O)c2cccs2)c1 (centres undefined)	–	10.3 µM [falling, partial curve, poor fit]
COc1ccccc1C(=O)COC(=O)CNS(=O)(=O)c1ccc(NC(C)=O)cc1	35.5 µM [rising, single point]	–
O=C(NCCc1ccccc1)NC1CCCCC1	13 µM [falling, partial curve]	–
CCCN1C(=O)CN(C2CCCCC2)C(=O)C1c1ccc(OC)c(OC)c1 (centres undefined)	0.0891 µM [rising, full curve, poor fit]	–
CC(=O)N/N=C\c1ccccc1OC/C=C/c1ccccc1	35.5 µM [rising, single point]	–

The results go on:

| Structure (SMILES) | AC50 [1] | AC50 [2] |
| --- | --- | --- |
| Cc1nn(C)c(Cl)c1CN1CCCC(CO)(Cc2cccc(Cl)c2)C1 (centres undefined) | 35.5 µM [falling, single point] | – |
| C=C1SC(=Nc2ccccc2Cl)N(C(=O)c2sc3ccccc3c2Cl)C12CCCCC2 | 5.62 µM [rising, single point] | – |
| CCOC(=O)CSc1nc(COc2ccccc2)nc2ccccc12 | 35.5 µM [falling, partial curve, poor fit] | – |
| COc1ccc(/C=N\Nc2ccccc2[N+](=O)[O-])c(C(=O)O)c1OC | 0.631 µM [rising, full curve] | – |
| COc1cc2c(cc1OC)C1=C(C#N)CC/C(=N\S(=O)(=O)c3ccccc3)N1CC2 | 3.98 µM [rising, partial curve, poor fit] | – |
| O=C(Nc1ccc(N2CCCC2)cc1)c1cccc(F)c1 | 0.517 µM [falling, partial curve, poor fit] | 4.61 µM [rising, partial curve, poor fit] |
| Cc1csc(NC(=O)CSc2nc3ccccc3c(=O)[nH]2)n1 | 1.03 µM [falling, full curve, poor fit] | – |
| Cc1occc1C(=O)Nc1ccccc1C(=O)O | 10 µM [falling, partial curve, poor fit] | – |
| O=C(Nc1ccccc1C(=O)O)c1cncc(Br)c1 | 1.3 µM [falling, full curve] | – |
| N#C/C(=C/c1ccc(F)cc1)c1nnc(NC(=O)c2ccccc2)s1 | 0.112 µM [rising, full curve, poor fit] | – |
| O=c1[nH]c(CN2CCC(c3nc4ccccc4s3)CC2)nc2sc3c(c12)CCC3 | 31.6 µM [rising, single point] | – |
| CCOC(=O)C1=NNC2(CC(=O)N(c3cc(C)cc(C)c3)C2=O)C1 (centres undefined) | 3.55 µM [rising, single point] | – |
| NC1=NC(=Nc2ccc(Br)cc2)c2ccccc21 | 25.9 µM [falling, single point] | – |
| O=c1oc([C@@H](O)c2ccccc2)cc2ccccc12 | 0.0461 µM [rising, full curve, poor fit] | – |
| Cc1cc(Cl)cc(Cl)c1OCCOCCN(C)C | 6.51 µM [rising, single point] | – |
| O=C(NC1=NCCS1)C1COc2ccccc2O1 (centres undefined) | 11.2 µM [falling, single point] | – |
| O=C(Cn1ncc(Cl)c(Cl)c1=O)NCC1CCCCC1 | 4.61 µM [falling, full curve] | – |
| O=S(=O)(c1ccc(F)cc1)n1ccc(-c2cnc(-c3ccccc3)s2)n1 | 2.51 µM [rising, full curve, poor fit] | – |
| O=c1c(-c2cnn(-c3ccccc3)c2)coc2cc(O)ccc12 | 5.01 µM [falling, partial curve] | – |
| O=C(COc1ccccc1)NNc1c2ccccc2nc2ccccc12 | 22.4 µM [falling, single point] | – |
| COC(=O)C1=C(C)N=c2s/c(=C/c3cccs3)c(=O)n2C1c1ccc(F)cc1 (centres undefined) | 0.651 µM [falling, full curve] | – |
